Reference: PubChem BioAssay AID1671190 (National Center for Advancing Translational Sciences (NCATS), 2021)
“And” between values parts separate entries of the source, which are not always exact repeats. Identical values can stand only once. Screen size: about 580,000 compounds; about 6,100 (1.1%) were called active. The shares of active, inactive and inconclusive entries below differ from those in the screen. Calls follow the shape of the dose curve; as a rule, active = well fitted inhibition curve with a large enough effect; inconclusive = small, poorly fitted or top-dose-only effect, or another doubt; inactive = no such curve, though single readings can be large or run the other way. Potencies beside an inconclusive call are fits to weak or partial responses and may not hold up.

Protein sequences, listed by entry. Tags and fused reporters are not part of them. Lines headed by an entry give the natural chain unless they say otherwise; changes in a name come on top.
UniProt P18054: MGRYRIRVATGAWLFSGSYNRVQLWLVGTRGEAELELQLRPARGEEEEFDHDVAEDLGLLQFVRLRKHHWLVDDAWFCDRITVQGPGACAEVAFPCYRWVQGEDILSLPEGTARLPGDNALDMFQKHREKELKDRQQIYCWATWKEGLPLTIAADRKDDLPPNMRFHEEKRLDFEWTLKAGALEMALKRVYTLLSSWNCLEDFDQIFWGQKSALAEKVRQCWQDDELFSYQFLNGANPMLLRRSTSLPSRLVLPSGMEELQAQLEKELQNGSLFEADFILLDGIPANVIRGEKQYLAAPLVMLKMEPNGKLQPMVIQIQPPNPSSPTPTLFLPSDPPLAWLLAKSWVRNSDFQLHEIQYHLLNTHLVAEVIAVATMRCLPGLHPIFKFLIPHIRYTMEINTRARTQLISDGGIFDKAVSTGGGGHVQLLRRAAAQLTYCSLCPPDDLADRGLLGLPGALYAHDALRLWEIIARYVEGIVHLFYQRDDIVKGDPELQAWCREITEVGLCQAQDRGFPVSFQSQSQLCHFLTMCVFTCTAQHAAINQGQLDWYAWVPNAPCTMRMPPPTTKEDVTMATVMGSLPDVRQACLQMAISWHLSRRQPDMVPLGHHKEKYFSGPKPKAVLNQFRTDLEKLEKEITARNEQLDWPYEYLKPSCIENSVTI

target: Polyunsaturated fatty acid lipoxygenase ALOX12 (Homo sapiens) (UniProt P18054); assay: Primary qHTS assay for inhibitors of human arachidonate 12S-lipoxygenase (ALOX12): Round 2; conditions: purified 12hLO, xylenol orange hydroperoxide absorbance; activity change, negative = inhibition: at 108 µM (top of the series) unless noted
Outline: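 Purified human 12hLO (150 nM final) in 25 mM Hepes, 0.01% Triton X-100, pH 7.0 was preincubated 15 min at room temperature with compound. Then 40 uM arachidonic acid was added, 30 min. Hydroperoxide was read by Fe-XO absorbance ratio 573/405 nm.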
% is scaled to controls: 0 for no effect and ±100 for the full control effect; potency is read from the fitted curve at half-maximal effect.

Compound	Potency	activity change, negative = inhibition
OC(COCc1ccccc1)CN1CCN(c2ccccc2)CC1 (stereo unspecified)	inconclusive: 35.5 µM [inhibitor, partial curve, poor fit]	–
CC(C(=O)O)n1cnc2ccccc21 (stereo unspecified)	inconclusive: 11.2 µM [inhibitor, partial curve, poor fit]	–
COc1cccc(CN2CCOC3CCN([S+](=O)([O-])c4ccccc4C)CC3C2=O)c1 (stereo unspecified)	inactive	–
Cn1cnnc1Sc1ccc(C(=O)NCCC23CC4CC(CC(C4)C2)C3)cc1[N+](=O)[O-]	inconclusive: 50.1 µM [inhibitor, partial curve, poor fit]	–
Cn1nc(C(F)(F)F)c(C(=O)Nc2ccc(F)cc2F)c1Sc1cccc(C(F)(F)F)c1	inactive	–
CCOC(=O)c1c(NC(=O)CSc2ncn[nH]2)sc(C(=O)NC)c1C	inactive	–
c1ccc(-c2cc(-c3ccccc3)on2)cc1	inactive	–
CCc1ccc(C(=O)CC2(O)C(=O)N(CCc3ccccc3)c3ccc(Br)cc32)cc1 (stereo unspecified)	inconclusive: 50.1 µM [inhibitor, partial curve, poor fit]	–
Cc1c(-c2ccccc2)oc2c(C(=O)NC(C)C3CC3)cccc2c1=O (stereo unspecified)	inactive	–
Cc1ccc(CSC2=Nc3ccccc3C3=NC(CCC(=O)NC4CCCCC4)C(=O)N23)cc1 (stereo unspecified)	inconclusive: 112 µM [inhibitor, partial curve, poor fit]	–
O=C1CC(N2CCN(c3ccccc3)CC2)C(=O)N1c1cccc(Br)c1 (stereo unspecified)	inconclusive: 6.31 µM [inhibitor, full curve, poor fit]	–
c1ccc(CN2CCN(c3nc(N4CCOCC4)c4ccccc4n3)CC2)cc1	inconclusive: 50.1 µM [inhibitor, partial curve, poor fit]	–
CC(=O)c1cccc(NC(=O)CSc2nc3c(c(=O)[nH]2)CCC3)c1	inconclusive: 100 µM [inhibitor, partial curve, poor fit]	–
Cc1cc(N2C(=O)C(O)=C(C(=O)c3cc4ccccc4o3)C2c2ccc([N+](=O)[O-])cc2)no1 (stereo unspecified)	inconclusive: 44.7 µM [inhibitor, partial curve, poor fit]	–
OCCC#CCN1CCCCC1	inconclusive: 100 µM [inhibitor, single point]	–
O=C(NNc1cccc(Cl)n1)Nc1cccc(Cl)c1	inconclusive: 126 µM [inhibitor, single point]	–
Cc1ccc2[nH]cc(S(=O)(=O)c3ccc(C)c(C)c3)c(=O)c2c1	–	inconclusive: -32.7% [inhibitor]
CCN(CC)CCNc1ccc(CO)c2sc3ccccc3c(=O)c12	inactive and inconclusive: 1.44 µM [inhibitor, full curve, poor fit]	–
CC(=O)c1c(C)[nH]c(C(=O)COc2ccc(C#N)cc2)c1C	inactive	–
CC1Cn2c(C(=O)NCCc3ccc(Cl)cc3)cc3cccc(c32)S1 (stereo unspecified)	inconclusive: 112 µM [inhibitor, partial curve, poor fit]	–
COCc1nnc(NC(=O)C2CC(=O)N(C3CCCC3)C2)s1 (stereo unspecified)	inactive	–
CC(C)c1ccc(NC(=O)c2cc(F)c(F)cc2Cl)cc1	inactive	–
CCSc1nc2c(c(=O)[nH]c(=O)n2C)n1Cc1ccccc1Cl	active: 31.6 µM	–
COC(=O)c1ccc(C2C(C(=O)c3ccc(C)o3)=C(O)C(=O)N2c2cc(C)on2)cc1 (stereo unspecified)	inconclusive: 5.01 µM [inhibitor, full curve, poor fit]	–

Compound	Potency	activity change, negative = inhibition
NNC(=S)Nc1ccc(Cl)cc1	inconclusive: 35.5 µM [inhibitor, partial curve, poor fit]	–
CCOc1ccccc1N(CC(=O)N(C)Cc1ccccc1)S(=O)(=O)c1ccccc1	inactive	–
COc1ccc(NC(=O)CN(c2cc(C)cc(C)c2)S(=O)(=O)c2c(C)n[nH]c2C)cc1	inactive	–
CCC(C)Sc1cc(-c2nc3ccccn3c2NC2CCCCC2)ccc1OC (stereo unspecified)	inconclusive: 44.7 µM [inhibitor, partial curve, poor fit]	–
CN1C(=O)C(CC(=O)Nc2ccc(F)cc2)N(Cc2cccs2)C1=S (stereo unspecified)	inactive	–
COc1ccc(CN(C)C(=O)c2ccccc2Sc2ccccc2C#N)c(OC)c1	inconclusive: 100 µM [inhibitor, single point]	–
Cn1c(CNC(=O)OC(C)(C)C)nnc1SCc1c(Cl)cccc1Cl	inconclusive: 39.8 µM [inhibitor, single point]	–
COc1ccc(-c2cc(C(=O)Oc3ccc(C)cc3)c3cc(C)ccc3n2)cc1	inconclusive: 20 µM [inhibitor, partial curve, poor fit]	–
Cc1ccc(C(C)NC(=S)NCc2ccc(F)cc2)cc1C (stereo unspecified)	inconclusive: 44.7 µM [inhibitor, partial curve, poor fit]	–
CC(=O)c1cccc(N2Cc3ccccc3C2=NC(=O)CCl)c1	inactive	–
O=C(CN1C(=O)COc2ccc(S(=O)(=O)N3CCCCCC3)cc21)Nc1cccc(Cl)c1	inconclusive: 15.8 µM [inhibitor, full curve, poor fit]	–
Cc1ccc(S(=O)(=O)N(C)CC(O)Cn2c3ccccc3c3ccccc32)cc1 (stereo unspecified)	inactive	–
COc1cccc(CNC(=O)c2cc3cc(C)ccc3[nH]2)c1	inactive	–
Nc1cc(C(=O)O)ccc1Sc1ccccc1C(=O)O	inconclusive: 89.1 µM [inhibitor, single point]	–
Cc1ccc(S(=O)(=O)/N=C2/NC(=O)/C(=C/c3cccnc3)S2)cc1	inactive	–
COc1cc(C2c3cc4c(cc3OC(Nc3ccc(C(=O)O)cc3)C2C)OCO4)cc(OC)c1OC (stereo unspecified)	inconclusive: 11.2 µM [inhibitor, partial curve, poor fit]	–
Cc1ccccc1C(=O)NC(CC(C)C)C(=O)NCC(C)(C)N1CCOCC1 (stereo unspecified)	inactive	–
Cc1cc(=O)n(C(C)C(=O)N2CCCc3ccccc32)c2c1c(C)nn2-c1ccccc1 (stereo unspecified)	inactive	–
O=S1(=O)N=C(N(Cc2cccs2)c2ccc(O)cc2)c2ccccc21	inconclusive: 50.1 µM [inhibitor, partial curve, poor fit]	–
Cc1c(-c2ccccc2)sc(N)c1C(=O)N1CCOCC1	inconclusive: 39.8 µM [inhibitor, partial curve, poor fit]	–
O=C(CN1C(=O)NC2(CCc3ccccc32)C1=O)c1c[nH]c2ccccc12 (stereo unspecified)	inactive	–
CC1(c2ccc3ccccc3c2)NC(=O)N(CC(=O)O)C1=O (stereo unspecified)	inactive	–
Cn1ncc(N2CCC(C(=O)NCc3cc(F)ccc3F)C2)cc1=O (stereo unspecified)	inactive	–
Cc1cc(C)n2nc(SC(C)C(=O)Nc3cc(Cl)cc(Cl)c3)nc2n1 (stereo unspecified)	inactive	–

Compound	Potency	activity change, negative = inhibition
Cc1[nH]n2c(=O)cc(-c3ccc(Cl)cc3)nc2c1-c1ccccc1	active: 39.8 µM	–
CCOC(=O)c1c(-c2ccccc2)[nH]c2ccc(C)cc12	inconclusive: 44.7 µM [inhibitor, partial curve, poor fit]	–
CC1=CC(=Nc2c(C)n(C)n(-c3ccccc3)c2=O)C=C(C)C1=O	inconclusive: 100 µM [inhibitor, partial curve, poor fit]	–
CCCc1cc2c(O)ccc(O)c2c(=O)o1	active: 35.5 µM	–
O=S(=O)(CCc1ccncc1)c1ccc(Cl)cc1	inconclusive: 44.7 µM [inhibitor, partial curve, poor fit]	–
CC(C)Cn1nc(C(=O)OCC(=O)Nc2ccccc2Cl)c2ccccc2c1=O	inactive	–
O=C1CCC/C=C\C[C@@H](CC(=O)N(CCO)Cc2ccccc2)C(=O)N[C@H](Cc2c[nH]c3ccccc23)CO1	inconclusive: 44.7 µM [inhibitor, single point]	–
CCOC(=O)c1cnc(C(C)(C)C)[nH]c1=O	inconclusive: 7.08 µM [inhibitor, full curve, poor fit]	–
CCC1(CC)NC(=O)N(CC(=O)OCC(=O)NC(=O)c2ccc(Cl)cc2)C1=O	inactive	–
CC(C)C(=O)OCC(=O)Nc1ccc2c(c1)CCC2	inconclusive: 141 µM [inhibitor, partial curve, poor fit]	–
CN1CCC(NC(=O)c2cccnc2OC2CCNCC2)CC1	inconclusive: 35.5 µM [inhibitor, partial curve, poor fit]	–
Cn1cnnc1SCC(=O)Nc1ccc2nc(SCc3ccccc3)sc2c1	inactive	–
COC(=O)CSC1=C(C#N)C(c2ccccc2F)CC(=O)N1 (stereo unspecified)	inconclusive: 44.7 µM [inhibitor, partial curve, poor fit]	–
Cc1ccc2nc(-c3cccc(SC4CCCCC4)c3)c(NCc3ccccc3)n2c1	inconclusive: 50.1 µM [inhibitor, partial curve, poor fit]	–
Cc1ccc(/C=C2\SC(N3CCCC3)=NC2=O)cc1	inactive	–
O=C1C=C(c2ccoc2)N2CCC[C@H]2C1	inconclusive: 15.8 µM [inhibitor, full curve]	–
CCOc1ccc(-c2nc(C)c(C(C)=O)n2O)cc1	inconclusive: 2.82 µM [inhibitor, full curve]	–
Cc1ccc(NC(=O)c2ccc3c(c2)CCN3S(C)(=O)=O)cc1	inactive	–
Cc1c(C(=O)N(C)Cc2nc3ccccc3c(=O)[nH]2)oc2ccc(F)cc12	inactive	–
S=C1Cc2ccccc2N1	inconclusive: 5.62 µM [inhibitor, partial curve, poor fit]	–
Fc1ccc(CNCCN2CCCC2)c(F)c1	inconclusive: 35.5 µM [inhibitor, partial curve, poor fit]	–
CC(=O)N1CCC(C(=O)N(C)CC(=O)Nc2ccccc2C(F)(F)F)CC1	inactive	–
Cc1ccc(C(=O)CC(C(=O)O)n2ccc(C)n2)cc1 (stereo unspecified)	inconclusive: 89.1 µM [inhibitor, single point]	–
